Laboratory results as given in patent US20060014179.
For some assays here: Negatives hold for the conditions tested. Where a protein sequence is shown, tags need not be part of it.

How the values were obtained:
[1] = biological target: T1, Mca1617 restriction endonuclease (printed Mcal617), co-expressed with Mca1616 methyltransferase (Methylococcus capsulatus) (UniProt Q607Y4); assay: enzyme reaction in vitro; details: single GCGCGC site not detectably cut; protein in an extract
T1 sequence (looked up, limits assumed): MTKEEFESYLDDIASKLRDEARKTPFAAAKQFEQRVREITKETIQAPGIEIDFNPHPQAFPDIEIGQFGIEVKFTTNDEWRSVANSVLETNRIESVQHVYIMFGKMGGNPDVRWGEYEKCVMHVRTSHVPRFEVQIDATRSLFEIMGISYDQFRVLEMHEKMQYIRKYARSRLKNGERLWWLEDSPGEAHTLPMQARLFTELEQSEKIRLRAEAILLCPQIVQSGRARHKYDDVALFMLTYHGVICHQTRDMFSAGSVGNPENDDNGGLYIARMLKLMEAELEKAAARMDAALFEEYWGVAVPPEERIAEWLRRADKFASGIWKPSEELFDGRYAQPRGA

BssHII = biological target: T2, BssHII (UniProt O30876); assay: enzyme reaction in vitro; details: single GCGCGC site is cut by BssHII; purified native protein
T2 sequence (looked up, limits assumed): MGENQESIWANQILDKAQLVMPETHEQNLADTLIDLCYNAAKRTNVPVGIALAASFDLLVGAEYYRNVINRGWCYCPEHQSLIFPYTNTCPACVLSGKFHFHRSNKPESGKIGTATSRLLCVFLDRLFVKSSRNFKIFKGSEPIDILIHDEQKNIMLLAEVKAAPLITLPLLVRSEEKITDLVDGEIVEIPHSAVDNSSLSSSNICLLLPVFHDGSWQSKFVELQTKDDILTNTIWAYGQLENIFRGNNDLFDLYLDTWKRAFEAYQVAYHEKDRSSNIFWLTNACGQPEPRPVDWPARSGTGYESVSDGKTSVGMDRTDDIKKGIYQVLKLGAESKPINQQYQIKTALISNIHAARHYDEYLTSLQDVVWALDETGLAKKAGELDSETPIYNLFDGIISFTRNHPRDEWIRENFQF

GCGCGC (double strand) [PhiX174 DNA (single GCGCGC site)]
activity on this sequence [1]: not active | activity on this sequence (BssHII): active
